Two substances from PMC9897159 can be followed below.

Holding throughout (experiment): co-IP
Experiment [1] deals with human RNF5 with a Flag tag (human) (UniProt Q99942).
The target in experiment [2] is SARS-CoV-2 membrane (M) protein with an HA tag (SARS-CoV-2) (UniProt P0DTC5).
The target in experiment [3] is SARS-CoV-2 envelope (E) protein with an HA tag (SARS-CoV-2) (UniProt P0DTC4).

These are yes or no findings as the source states them, for the method shown. In cells and extracts the contact can be indirect. Some entries that bind do so weakly or less than the wild type.

Regarding “SARS-CoV-2 envelope (E) protein with an HA tag (from UniProt P0DTC4 1-75)”, the binding result in experiment [1] is listed as “binds”. As to “human RNF5 with a Flag tag (from UniProt Q99942 1-180) (enzyme)”, the binding result in experiment [2] and in experiment [3] was “binds” each time.
